# The other results are listed elsewhere or left out.
# How the values were obtained:
# Test in all cases: glycan array binding signal (z-score within array); higher = stronger binding
# Conditions in all cases: glycan notation: IUPAC condensed, linker removed
# [1] = target: Fuc(a1-2)[Gal(a1-3)]Gal(b1-4)GlcNAc(b1-2)Man(a1-3)[Fuc(a1-2)[Gal(a1-3)]Gal(b1-4)GlcNAc(b1-2)Man(a1-6)]Man(b1-4)GlcNAc(b1-4)GlcNAc
# In short: (§1)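 Glycan array data were curated from 3228 arrays in the Consortium for Functional Glycomics database and kept only where the protein sequence was available. Glycan names were converted to IUPAC-condensed notation, and columns mapping to the same glycan were averaged. The binding signal is a within-array Z-score, averaged across arrays of the same protein sequence at different concentrations or buffers and across linkers. Negative Z-scores can be read as non-binding.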
# [2] = target: Fuc(a1-2)[Gal(a1-3)]Gal(b1-4)GlcNAc(b1-2)Man(a1-3)[Fuc(a1-2)[Gal(a1-3)]Gal(b1-4)GlcNAc(b1-2)Man(a1-6)]Man(b1-4)GlcNAc(b1-4)[Fuc(a1-6)]GlcNAc
# In short: as §1
# [3] = target: Fuc(a1-2)[Gal(a1-3)]Gal(b1-4)GlcNAc(b1-3)GalNAc
# In short: as §1
# [4] = target: Fuc(a1-2)[Gal(a1-3)]Gal(b1-4)GlcNAc(b1-3)[Fuc(a1-2)[Gal(a1-3)]Gal(b1-4)GlcNAc(b1-6)]GalNAc
# In short: as §1
# [5] = target: Fuc(a1-2)[Gal(a1-3)]Gal(b1-4)GlcNAc(b1-6)GalNAc
# In short: as §1
# [6] = target: Fuc(a1-2)[Gal(a1-3)]Gal(b1-4)[Fuc(a1-3)]Glc
# In short: as §1
# [7] = target: Fuc(a1-2)[Gal(a1-3)]Gal(b1-4)[Fuc(a1-3)]GlcNAc
# In short: as §1
# [8] = target: Fuc(a1-2)[Gal(a1-3)]Gal(b1-4)[Fuc(a1-3)]GlcNAc(b1-3)GalNAc
# In short: as §1
# [9] = target: Fuc(a1-2)[Gal(a1-4)]Gal(b1-4)GlcNAc
# In short: as §1
# [10] = target: Fuc(a1-2)[GalNAc(a1-3)]Gal
# In short: as §1
# [11] = target: Fuc(a1-2)[GalNAc(a1-3)]Gal(b1-3)GalNAc(a1-3)[Fuc(a1-2)]Gal(b1-4)GlcNAc
# In short: as §1
# [12] = target: Fuc(a1-2)[GalNAc(a1-3)]Gal(b1-3)GalNAc(b1-3)Gal(a1-4)Gal(b1-4)Glc
# In short: as §1
# [13] = target: Fuc(a1-2)[GalNAc(a1-3)]Gal(b1-3)GlcNAc
# In short: as §1
# [14] = target: Fuc(a1-2)[GalNAc(a1-3)]Gal(b1-3)GlcNAc(b1-2)Man(a1-3)[Fuc(a1-2)[GalNAc(a1-3)]Gal(b1-3)GlcNAc(b1-2)Man(a1-6)]Man(b1-4)GlcNAc(b1-4)GlcNAc
# In short: as §1
# [15] = target: Fuc(a1-2)[GalNAc(a1-3)]Gal(b1-3)GlcNAc(b1-2)Man(a1-3)[Fuc(a1-2)[GalNAc(a1-3)]Gal(b1-3)GlcNAc(b1-2)Man(a1-6)]Man(b1-4)GlcNAc(b1-4)[Fuc(a1-6)]GlcNAc
# In short: as §1
# [16] = target: Fuc(a1-2)[GalNAc(a1-3)]Gal(b1-3)GlcNAc(b1-3)GalNAc
# In short: as §1
# [17] = target: Fuc(a1-2)[GalNAc(a1-3)]Gal(b1-3)GlcNAc(b1-6)GalNAc
# In short: as §1
# [18] = target: Fuc(a1-2)[GalNAc(a1-3)]Gal(b1-4)Glc
# In short: as §1
# [19] = target: Fuc(a1-2)[GalNAc(a1-3)]Gal(b1-4)GlcNAc
# In short: as §1
# [20] = target: Fuc(a1-2)[GalNAc(a1-3)]Gal(b1-4)GlcNAc(b1-2)Man
# In short: as §1
# [21] = target: Fuc(a1-2)[GalNAc(a1-3)]Gal(b1-4)GlcNAc(b1-2)Man(a1-3)[Fuc(a1-2)[GalNAc(a1-3)]Gal(b1-4)GlcNAc(b1-2)Man(a1-6)]Man(b1-4)GlcNAc(b1-4)GlcNAc
# In short: as §1
# [22] = target: Fuc(a1-2)[GalNAc(a1-3)]Gal(b1-4)GlcNAc(b1-2)Man(a1-3)[Fuc(a1-2)[GalNAc(a1-3)]Gal(b1-4)GlcNAc(b1-2)Man(a1-6)]Man(b1-4)GlcNAc(b1-4)[Fuc(a1-6)]GlcNAc
# In short: as §1
# [23] = target: Fuc(a1-2)[GalNAc(a1-3)]Gal(b1-4)GlcNAc(b1-3)Gal(b1-4)GlcNAc
# In short: as §1
# [24] = target: Fuc(a1-2)[GalNAc(a1-3)]Gal(b1-4)GlcNAc(b1-3)Gal(b1-4)GlcNAc(b1-3)Gal(b1-4)GlcNAc
# In short: as §1
# [25] = target: Fuc(a1-2)[GalNAc(a1-3)]Gal(b1-4)GlcNAc(b1-3)GalNAc
# In short: as §1
# [26] = target: Fuc(a1-2)[GalNAc(a1-3)]Gal(b1-4)GlcNAc(b1-3)[Fuc(a1-2)[GalNAc(a1-3)]Gal(b1-4)GlcNAc(b1-6)]GalNAc
# In short: as §1
# [27] = target: Fuc(a1-2)[GalNAc(a1-3)]Gal(b1-4)GlcNAc(b1-6)GalNAc
# In short: as §1
# [28] = target: Fuc(a1-2)[GalNAc(a1-3)]Gal(b1-4)[Fuc(a1-3)]GlcNAc
# In short: as §1
# [29] = target: Fuc(a1-2)[GalNAc(a1-3)]Gal(b1-4)[Fuc(a1-3)]GlcNAc(b1-3)GalNAc
# In short: as §1
# [30] = target: Fuc(a1-2)[GalNAc(a1-4)]Gal(b1-4)GlcNAc
# In short: as §1
# [31] = target: Fuc(a1-2)[GalNAc(b1-3)]Gal
# In short: as §1
# Fuc(a1-3)GlcNAc = target: Fuc(a1-3)GlcNAc
# In short: as §1
# [32] = target: Fuc(a1-3)[Gal(b1-4)]Glc6S
# In short: as §1
# [33] = target: Fuc(a1-3)[Gal(b1-4)]GlcNAc
# In short: as §1
# [34] = target: Fuc(a1-3)[Gal(b1-4)]GlcNAc(b1-2)Man
# In short: as §1
# [35] = target: Fuc(a1-3)[Gal(b1-4)]GlcNAc(b1-2)Man(a1-3)[Fuc(a1-3)[Gal(b1-4)]GlcNAc(b1-2)Man(a1-6)]Man(b1-4)GlcNAc(b1-4)GlcNAc
# In short: as §1
# [36] = target: Fuc(a1-3)[Gal(b1-4)]GlcNAc(b1-2)Man(a1-3)[Fuc(a1-3)[Gal(b1-4)]GlcNAc(b1-2)Man(a1-6)]Man(b1-4)GlcNAc(b1-4)[Fuc(a1-6)]GlcNAc
# In short: as §1
binder,measurement,setting,value
"AT1G80310(18) (Arabidopsis thaliana), Q0WP36 (protein) METTTTPLLPGDRSRCGWLRRRLRLKNPLSSELSGAVGDLGTFIPIVLTLTLVSNLDLSTTLIFTGFYNIATGLLFDIPMPVQPMKSIAAVAVSESPHLTPSQIAAAGASTAATLLLLGATGAMSFLYNIIPLPVVRGVQLSQGLQFAFTAIKYVRFNYDTATLKPSSSPRIWLGLDGLILALAALLFIILSTGSGNDREAEDGDLAETSSNESQSRRRRLRLLSSIPSALIVFALGLVLCFIRDPSIFKDLKFGPSKFHILRISWDDWKIGFLRAAIPQIPLSVLNSVIAVCKLSNDLFDKELSATTVSISVGVMNLIGCWFGAMPVCHGAGGLAGQYRFGARSGLSVIFLGIGKLIVGLVFGNSFVRILSQFPIGILGVLLLFAGIELAMASKDMNSKEDSFIMLVCAAVSMTGSSAALGFGCGVVLYLLLKLRTLDCSSVTLFSRSSDESQVDSEAAPRDV",glycan array binding signal (z-score),[1],0.588
same,glycan array binding signal (z-score),[2],0.431
same,glycan array binding signal (z-score),[3],-1.01
same,glycan array binding signal (z-score),[4],-0.644
same,glycan array binding signal (z-score),[5],0.042
same,glycan array binding signal (z-score),[6],1.54
same,glycan array binding signal (z-score),[7],-0.238
same,glycan array binding signal (z-score),[8],2.13
same,glycan array binding signal (z-score),[9],-0.702
same,glycan array binding signal (z-score),[10],1.64
same,glycan array binding signal (z-score),[11],-0.928
same,glycan array binding signal (z-score),[12],-0.741
same,glycan array binding signal (z-score),[13],-0.66
same,glycan array binding signal (z-score),[14],-0.171
same,glycan array binding signal (z-score),[15],-0.162
same,glycan array binding signal (z-score),[16],0.205
same,glycan array binding signal (z-score),[17],-0.527
same,glycan array binding signal (z-score),[18],-0.703
same,glycan array binding signal (z-score),[19],1.59
same,glycan array binding signal (z-score),[20],-0.472
same,glycan array binding signal (z-score),[21],-0.944
same,glycan array binding signal (z-score),[22],-0.292
same,glycan array binding signal (z-score),[23],1.68
same,glycan array binding signal (z-score),[24],-0.829
same,glycan array binding signal (z-score),[25],0.291
same,glycan array binding signal (z-score),[26],-0.587
same,glycan array binding signal (z-score),[27],1.43
same,glycan array binding signal (z-score),[28],1.39
same,glycan array binding signal (z-score),[29],1.71
same,glycan array binding signal (z-score),[30],-0.867
same,glycan array binding signal (z-score),[31],-0.584
same,glycan array binding signal (z-score),Fuc(a1-3)GlcNAc,-0.279
same,glycan array binding signal (z-score),[32],1.38
same,glycan array binding signal (z-score),[33],-0.719
same,glycan array binding signal (z-score),[34],-0.042
same,glycan array binding signal (z-score),[35],1.16
same,glycan array binding signal (z-score),[36],-0.402

# Part of the list above, as tab-separated lines:
binder	measurement	setting	value
AT1G80310(18) (Arabidopsis thaliana), Q0WP36 (protein) METTTTPLLPGDRSRCGWLRRRLRLKNPLSSELSGAVGDLGTFIPIVLTLTLVSNLDLSTTLIFTGFYNIATGLLFDIPMPVQPMKSIAAVAVSESPHLTPSQIAAAGASTAATLLLLGATGAMSFLYNIIPLPVVRGVQLSQGLQFAFTAIKYVRFNYDTATLKPSSSPRIWLGLDGLILALAALLFIILSTGSGNDREAEDGDLAETSSNESQSRRRRLRLLSSIPSALIVFALGLVLCFIRDPSIFKDLKFGPSKFHILRISWDDWKIGFLRAAIPQIPLSVLNSVIAVCKLSNDLFDKELSATTVSISVGVMNLIGCWFGAMPVCHGAGGLAGQYRFGARSGLSVIFLGIGKLIVGLVFGNSFVRILSQFPIGILGVLLLFAGIELAMASKDMNSKEDSFIMLVCAAVSMTGSSAALGFGCGVVLYLLLKLRTLDCSSVTLFSRSSDESQVDSEAAPRDV	glycan array binding signal (z-score)	[7]	-0.238
same	glycan array binding signal (z-score)	[8]	2.13
